Experimental data reported in the supplement of paper PMC12067093, “Discovery and optimisation of a covalent ligand for TRIM25 and its application to targeted protein ubiquitination” (Chemical Science, 2025).
This is one part of the list.

Target: INTS9_Q9NV88_637_GHIVLLQEAETLIQIEEDSTHIICDNDEMLR (UniProt Q9NV88)
Test: probe-labelled cysteine peptide fold change vs DMSO (competition) (log2 fold change); higher = less target engagement (more negative = stronger competition)
Details: THP-1, incubation time: 4 h
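Further: competitive chemoproteomic profiling in live THP-1 cells with an iodoacetamide desthiobiotin (IA-DTB) probe, comparing probe-labelled peptide intensities in compound-treated cells against DMSO-treated controls.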

`CC1Cc2ccccc2N1C(=O)C1CCCN(C(=O)CCl)C1` (mixture of isomers) [TRIM25 ligand 11 (diastereomer mixture)] was tested, and the “probe-labelled cysteine peptide fold change” value (10 µM) was -0.111 and the “probe-labelled cysteine peptide fold change” value (50 µM) was -0.196.
